Source: PubChem BioAssay (NCATS)
Several values for one entry are separate records, joined by “and”; a condition that tells them apart may be missing. Equal entries are not always repeated. This is one part of the list. These are further read-outs of the screen, such as a control signal, another cell line or another target. No call is given for them. The list favours compounds with an active or inconclusive main result. For some of these results: Words in brackets tell the shape of the fitted curve; partial curves, single points and poor fits give uncertain potencies.

How the values were obtained:
[1] = qHTS assay for small molecule antagonists of androgen receptor signaling (AID 588516); details: AR-UAS-bla HEK293, beta-lactamase ratio, antagonist mode, 16 h
In short: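 Antagonist mode: inhibition of R1881-stimulated (10 nM final) bla reporter in GeneBLAzer AR HEK 293 cells, 16 h at 37C, compounds titrated. IC50 and efficacy from Hill-equation fits of 405/460–530 nm FRET ratios.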

[2] = qHTS assay for small molecule antagonists of glucocorticoid receptor signaling (AID 588533); details: HeLa MMTV-bla, GRE beta-lactamase ratio, antagonist mode, 18 h; measured here: W530 channel AC50
[3] = qHTS assay for small molecule antagonists of peroxisome proliferator-activated receptor gamma signaling (AID 588537); details: HEK293 PPARg-UAS-bla, beta-lactamase ratio, antagonist mode; measured here: W460 blue channel
In short: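 PPARγ-UAS-bla HEK293 cells (3000/well) in 1% charcoal/dextran-stripped FBS are treated with compound, then stimulated with 50 nM rosiglitazone for 16 h at 37 °C. Read-out is CCF4 β-lactamase fluorescence after 2 h at RT. IC50 comes from Hill fits normalised to rosiglitazone and DMSO.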

[4] = qHTS assay for small molecule agonists of retinoid X receptor alpha signaling (AID 588544); details: HEK293T RXRa-UAS-bla, beta-lactamase reporter, 18 h; 530 nm emission
[5] = qHTS assay for small molecule antagonists of retinoid X receptor alpha signaling (AID 588546); details: HEK293T RXRa-UAS-bla, beta-lactamase ratio, antagonist mode; measured here: W530 green channel, cytotoxicity proxy;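 further: cells stimulated with 9-cis-retinoic acid as agonist; on the % scale 0 is the no-effect control and ±100 the full control effect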
In short: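 Beta-lactamase reporter inhibition, read as CCF4 fluorescence ratio (ex 405, em 460/530 nm) after 2 h at RT. HEK293T UAS-bla cells, 2500/well, were stimulated with 9-cis-RA at 500 or 100 nM final alongside test compound for 18 h at 37 C.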

[6] = qHTS assay for small molecule antagonists of peroxisome proliferator-activated receptor delta signaling (AID 588535); details: HEK293T PPARd-UAS-bla, beta-lactamase FRET ratio, 18 h; 460 nm channel;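 further: cells co-treated with a PPAR-delta agonist as stimulator during compound exposure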
In short: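 Antagonist-mode beta-lactamase reporter (GeneBLAzer PPAR-delta-UAS-bla) in HEK293T cells, 2% charcoal/dextran FBS, 4000 cells/well. Compound titrations, 18 h at 37 C; CCF4 ratio read, IC50 and efficacy from Hill fits.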

[7] = qHTS assay for small molecule antagonists of vitamin D receptor signaling (AID 588541); details: HEK293T VDR-UAS-bla, beta-lactamase ratio, antagonist mode; measured here: W460 blue channel (cell viability)
[8] = measured here: W460 blue channel fit
[9] = measured here: W530 green channel, cytotoxicity/artifact

SMILES | AC50 [1, 8] | AC50 [2] | AC50 [3] | max response [4] | max response [5] | AC50 [1, 9] | max response [6] | AC50 [7]
COC(=O)N(C(=O)N1COC2(C(=O)OC)Cc3cc(Cl)ccc3C2=N1)c1ccc(OC(F)(F)F)cc1 (stereo not drawn) | 50.1 µM [falling, single point] | 63.1 µM [falling, partial curve, poor fit] | 0.00158 µM [falling, full curve, poor fit] | 7.91% | -14.6% | – | – | –
COC(=O)Nc1nc2ccccc2[nH]1 | 14.1 µM [falling, partial curve, poor fit] | 15.8 µM [falling, partial curve, poor fit] | – | 9.02% and -6.4% | -4.38% | 44.7 µM [rising, single point] | -49.9% | –
CCC[CH2][Sn]([CH2]CCC)[CH2]CCC | – | 39.8 µM [falling, partial curve, poor fit] | – | -27.3% | -52.4% | 2.82 µM [rising, partial curve, poor fit] | -81.5% | 15.8 µM [falling, full curve]
C[C@@H]1Cc2c(Cl)cc(C(=O)N[C@@H](Cc3ccccc3)C(=O)O)c(O)c2C(=O)O1 | 2.24 µM [falling, full curve] | – | 2.82 µM [falling, full curve, poor fit] | -8.52% | 10.6% | 12.6 µM [rising, full curve] | – | –
CCc1cccc(CC)c1N(COC)C(=O)CCl | 50.1 µM [falling, partial curve, poor fit] and 100 µM [falling, partial curve, poor fit] | – | 15.8 µM [falling, partial curve, poor fit] and 25.1 µM [falling, partial curve, poor fit] | 34.9% | 24% | – | -13.4% and 92.8% | –
O=Nc1ccc(Nc2ccccc2)cc1 | 50.1 µM [falling, partial curve, poor fit] and 44.7 µM [falling, partial curve, poor fit] | – | 50.1 µM [falling, partial curve, poor fit] | 43.4% and -3.82% | 54.6% and -34.6% | 44.7 µM [rising, single point] and 44.7 µM [rising, partial curve] | -52.7% and -81.2% | 25.1 µM [falling, full curve, poor fit] and 22.4 µM [falling, full curve]
O=C(NC(=O)c1c(F)cccc1F)Nc1cc(Cl)c(OC(F)(F)C(F)F)c(Cl)c1 | 35.5 µM [falling, partial curve, poor fit] | – | – | – | – | 35.5 µM [rising, partial curve, poor fit] | -19.3% | –
N#Cc1cc(Br)c(O)c(Br)c1 | – | – | – | – | – | 25.1 µM [rising, partial curve] | 18.1% | –
COP(=O)(OC)O/C(=C\Cl)c1cc(Cl)c(Cl)cc1Cl | 44.7 µM [falling, partial curve, poor fit] | – | 25.1 µM [falling, partial curve] | 30.1% | 16.8% | – | -73.5% | –
O=C1C(Cl)=C(Cl)C(=O)C(Cl)=C1Cl | 12.6 µM [falling, full curve, poor fit] | – | 31.6 µM [falling, full curve, poor fit] | -21.9% | -27.3% | 26.8 µM [rising, partial curve] | – | 2.82 µM [falling, full curve]
CN(c1c(Br)cc(Br)cc1Br)c1c([N+](=O)[O-])cc([N+](=O)[O-])cc1C(F)(F)F | 31.6 µM [falling, partial curve, poor fit] | 7.08 µM [falling, partial curve] | 50.1 µM [falling, partial curve, poor fit] | -18.3% | – | 25.1 µM [rising, full curve, poor fit] | – | –
CC/C(=C(\c1ccc(O)cc1)c1ccc(OCCN(C)C)cc1)c1ccccc1 | 50.1 µM [falling, single point] | 50.1 µM [falling, single point] | – | – | – | – | -93.6% | –
